Drawing on paper PMC9606377, this text covers binding for one substance.

By UniProt entry, the sequences of proteins in these tests, tags left out. Where a name states a change or a piece, a line headed by the entry shows the natural chain unless it says otherwise.
UniProt P08194: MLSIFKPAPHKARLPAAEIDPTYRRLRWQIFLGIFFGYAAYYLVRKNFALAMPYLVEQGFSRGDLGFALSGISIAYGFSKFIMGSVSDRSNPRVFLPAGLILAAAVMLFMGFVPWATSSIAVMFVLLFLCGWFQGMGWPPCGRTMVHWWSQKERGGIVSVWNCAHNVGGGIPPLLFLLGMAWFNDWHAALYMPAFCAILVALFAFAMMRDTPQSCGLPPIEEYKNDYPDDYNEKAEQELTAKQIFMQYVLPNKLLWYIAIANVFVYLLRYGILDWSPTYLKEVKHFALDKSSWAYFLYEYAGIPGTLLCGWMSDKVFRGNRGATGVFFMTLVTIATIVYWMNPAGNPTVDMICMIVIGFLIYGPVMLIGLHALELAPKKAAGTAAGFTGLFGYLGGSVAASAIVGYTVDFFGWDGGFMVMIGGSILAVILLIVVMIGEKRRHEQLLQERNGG
UniProt P0ABG7: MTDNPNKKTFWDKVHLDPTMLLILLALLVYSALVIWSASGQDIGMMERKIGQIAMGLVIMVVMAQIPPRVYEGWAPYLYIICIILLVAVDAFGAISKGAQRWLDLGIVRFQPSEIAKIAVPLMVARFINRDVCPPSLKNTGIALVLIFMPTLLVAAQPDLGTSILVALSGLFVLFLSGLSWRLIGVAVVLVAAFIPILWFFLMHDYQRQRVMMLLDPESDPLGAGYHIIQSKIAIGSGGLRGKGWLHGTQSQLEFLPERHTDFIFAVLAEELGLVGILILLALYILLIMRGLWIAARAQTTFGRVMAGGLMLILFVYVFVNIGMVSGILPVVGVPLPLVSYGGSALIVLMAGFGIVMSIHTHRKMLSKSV

This assay concerns the target sfTq2^oxopt-GlpT (UniProt P08194). The experiment in a line: FRET or BRET; in E. coli LMC500 cells with two plasmids, steady-state growth in GB1 medium at 28 °C, 15 µM IPTG for two mass doublings, fixed with 2.8% formaldehyde and 0.04% glutardialdehyde, overnight maturation; emission spectra by spectrofluorometer, unmixed; donor sfTq2^oxopt, acceptor RBS^short-mNG-v4. A general note: BRET reads energy transfer from a luciferase to a nearby fluorophore.

These are yes or no findings as the source states them, for the method shown. Binding seen in cells or lysates may run through a third protein.

Take “RBS^short-mNG-v4-RodA (from UniProt P0ABG7)”: the binding entry was “no binding”.
